Reference: paper PMC3101213
The exact form of at least one protein or probe is not confirmed. At least one result comes from cells or an extract, where the contact may be indirect. For part of these data: Negatives hold for the conditions tested.

Chains of the proteins cited; added tags and fusions are not shown.
UniProt P03372, whole entry: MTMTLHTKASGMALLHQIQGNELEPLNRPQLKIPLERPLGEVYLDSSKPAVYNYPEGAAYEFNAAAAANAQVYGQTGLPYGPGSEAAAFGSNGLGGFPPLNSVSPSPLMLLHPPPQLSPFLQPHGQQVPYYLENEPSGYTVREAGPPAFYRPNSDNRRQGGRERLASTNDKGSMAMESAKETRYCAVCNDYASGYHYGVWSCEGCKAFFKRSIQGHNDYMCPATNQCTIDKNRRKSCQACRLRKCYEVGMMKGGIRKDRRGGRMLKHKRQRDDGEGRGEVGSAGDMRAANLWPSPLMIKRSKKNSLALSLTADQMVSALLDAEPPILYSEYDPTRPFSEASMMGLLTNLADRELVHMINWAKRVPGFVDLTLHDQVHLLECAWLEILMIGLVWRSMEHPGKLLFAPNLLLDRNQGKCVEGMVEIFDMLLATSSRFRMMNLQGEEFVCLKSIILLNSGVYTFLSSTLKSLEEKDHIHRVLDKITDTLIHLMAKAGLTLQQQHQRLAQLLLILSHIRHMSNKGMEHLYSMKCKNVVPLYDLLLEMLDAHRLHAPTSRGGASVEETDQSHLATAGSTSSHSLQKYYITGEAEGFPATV

How the values were obtained:
[1] = molecular target: ERα (estrogen receptor alpha, endogenous in ZR75-1 nuclear extract) (UniProt P03372); test: EMSA; details: 10 µg nuclear extract, 1 nmol oligonucleotide, 2.5% glycerol, 0.05% NP-40, 50 mM KCl, 5 mM MgCl2, 1 mM EDTA, 10 mM Tris pH 7.6, 50 ng poly(dI-dC), 30 min, protein in an extract, label: biotin 3' end
[2] = molecular target: ERα (estrogen receptor alpha, endogenous in ZR75-1 nuclear extract) (UniProt P03372); test: EMSA supershift; details: 10 nM E2, ZR75-1 nuclear extract, empty vector, inhibited by 100-fold cold ERE; 10 µg nuclear extract, 1 nmol oligonucleotide, 2.5% glycerol, 0.05% NP-40, 50 mM KCl, 5 mM MgCl2, 1 mM EDTA, 10 mM Tris pH 7.6, 50 ng poly(dI-dC), 30 min; protein in an extract; label: biotin 3' end

## AGCTCTTTGATCAGTACACTGTGACCTGACTTT (double strand) [EREM (mutant ERE)]
[1]; 10 nM E2, ZR75-1 nuclear extract
  binding result: no binding

## AGCTCTTTGATCAGGTCACTGTGACCTGACTTT (double strand) [ERE]
[1]; 10 nM E2, ZR75-1 nuclear extract with FLAG-CTGF overexpressed, binding not affected
  binding result: binds
[2]
  binding result: binds
